Test results reported in article doi:10.1101/660712.
Results are given in words; binding and its absence hold for the method and conditions named. For part of these data: Binding seen in cells or lysates may run through a third protein. Some binding calls cover weakened binding; strength is not graded here.

Protein sequences, listed by entry. Tags and fused reporters are not part of them.
UniProt P05429: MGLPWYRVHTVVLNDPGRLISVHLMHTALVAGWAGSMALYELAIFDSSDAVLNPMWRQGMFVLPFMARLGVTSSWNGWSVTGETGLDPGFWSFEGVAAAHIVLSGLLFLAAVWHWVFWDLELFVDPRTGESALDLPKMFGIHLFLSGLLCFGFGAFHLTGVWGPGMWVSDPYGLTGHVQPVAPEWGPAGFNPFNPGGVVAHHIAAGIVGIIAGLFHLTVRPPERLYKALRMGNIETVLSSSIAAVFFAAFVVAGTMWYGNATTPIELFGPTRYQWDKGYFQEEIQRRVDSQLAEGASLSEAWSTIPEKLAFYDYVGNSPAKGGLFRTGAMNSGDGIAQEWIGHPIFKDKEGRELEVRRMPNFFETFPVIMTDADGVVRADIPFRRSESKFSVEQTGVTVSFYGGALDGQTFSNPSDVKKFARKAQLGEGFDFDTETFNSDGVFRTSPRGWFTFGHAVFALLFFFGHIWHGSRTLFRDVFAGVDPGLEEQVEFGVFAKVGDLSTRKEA
UniProt P14835: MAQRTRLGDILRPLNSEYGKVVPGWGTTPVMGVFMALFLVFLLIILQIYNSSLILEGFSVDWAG

Assays:
[1] = target: CP43 (PSII core antenna protein) (Synechocystis sp. PCC 6803 (endogenous)) (UniProt P09193); assay: AUC
[2] = target: His-tagged CP47 (PSII core antenna protein CP47) (Synechocystis sp. PCC 6803) (UniProt P05429); assay: AUC
[3] = target: His-tagged CP47 (PSII core antenna protein CP47) (Synechocystis sp. PCC 6803) (UniProt P05429); assay: pull-down

## CP43 (PSII core antenna protein) (from UniProt P09193 1-460)
[1]
  binding: no binding

## His-tagged CP47 (PSII core antenna protein CP47) (from UniProt P05429 1-507)
[2]
  binding: no binding

## PsbH (from UniProt P14835 1-64)
[3]
  binding: binds
